Measured values taken from US11786586B2, “Carbohydrate structures and uses thereof” (AOA Dx, priority 2016, dated 2023).
Some of these results come from one statement about several compounds together.

Experiment: Water solubility
Type: physicochemical
Source text: Carbohydrates were synthesized as previously described (Gilbert, M., et al. J Biol Chem. 277(1):327-337, 2002; Chiu, C. P., et al. Nat Struc Mol Bio. 11(2)163-170, 2004; and Blixt, O., Carbohydrate Research. 340(12):1963-1972, 2005) by modification of the process for phenylthio-GD2 in which the phenylthio moiety was substituted with a p-aminophenylether in the starting p-aminophenyl-β-D-lactopyranoside (AP-Lac, from Toronto Research Chemicals), that was subsequently used to enzymatically synthesize the respective ganglioside carbohydrate for conjugation to the dendrimer (see below). AP-GD2 and AP-GD3 were water soluble (>20 mg/ml). The measured molecular weights of AP-GD2 (1218 g/mol) and AP-GD3 (927 g/mol) corresponded to expected values. Structures were verified by 1D and 2D NMR spectroscopy and mass spectrometry (EI-MS). The AP-GD2 and AP-GD3 intermediates were purified to >99% purity by size-exclusion chromatography (Superdex 30 16 mm×85 cm column, GE Health Care) before their application in the synthesis of the tetrameric vaccines.

Substance | water soluble [mg/mL]
p-amino phenyl ether-GD2 [AP-GD2] | > 20
p-amino phenyl ether-GD3 [AP-GD3] | > 20
